The target of assay [1] is T1, NMI (HA- or Myc-tagged, transfected HeLa cells, Fig. 4D-H) (human) (UniProt Q13287).
T1 sequence: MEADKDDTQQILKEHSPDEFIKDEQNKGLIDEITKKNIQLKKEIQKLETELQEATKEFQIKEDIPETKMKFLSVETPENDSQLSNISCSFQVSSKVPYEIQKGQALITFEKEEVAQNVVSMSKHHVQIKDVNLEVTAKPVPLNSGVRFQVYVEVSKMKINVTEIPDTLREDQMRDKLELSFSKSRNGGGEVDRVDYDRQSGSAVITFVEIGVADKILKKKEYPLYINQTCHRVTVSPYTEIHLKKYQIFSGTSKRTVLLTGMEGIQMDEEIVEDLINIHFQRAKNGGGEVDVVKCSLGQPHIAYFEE
The experiment in a line: co-IP; HeLa cells transfected with the indicated plasmids; immunoprecipitated with anti-Myc Ab, immunoblotted with anti-HA Ab.

By UniProt entry, the sequences of proteins in these tests, tags left out.
UniProt P19838: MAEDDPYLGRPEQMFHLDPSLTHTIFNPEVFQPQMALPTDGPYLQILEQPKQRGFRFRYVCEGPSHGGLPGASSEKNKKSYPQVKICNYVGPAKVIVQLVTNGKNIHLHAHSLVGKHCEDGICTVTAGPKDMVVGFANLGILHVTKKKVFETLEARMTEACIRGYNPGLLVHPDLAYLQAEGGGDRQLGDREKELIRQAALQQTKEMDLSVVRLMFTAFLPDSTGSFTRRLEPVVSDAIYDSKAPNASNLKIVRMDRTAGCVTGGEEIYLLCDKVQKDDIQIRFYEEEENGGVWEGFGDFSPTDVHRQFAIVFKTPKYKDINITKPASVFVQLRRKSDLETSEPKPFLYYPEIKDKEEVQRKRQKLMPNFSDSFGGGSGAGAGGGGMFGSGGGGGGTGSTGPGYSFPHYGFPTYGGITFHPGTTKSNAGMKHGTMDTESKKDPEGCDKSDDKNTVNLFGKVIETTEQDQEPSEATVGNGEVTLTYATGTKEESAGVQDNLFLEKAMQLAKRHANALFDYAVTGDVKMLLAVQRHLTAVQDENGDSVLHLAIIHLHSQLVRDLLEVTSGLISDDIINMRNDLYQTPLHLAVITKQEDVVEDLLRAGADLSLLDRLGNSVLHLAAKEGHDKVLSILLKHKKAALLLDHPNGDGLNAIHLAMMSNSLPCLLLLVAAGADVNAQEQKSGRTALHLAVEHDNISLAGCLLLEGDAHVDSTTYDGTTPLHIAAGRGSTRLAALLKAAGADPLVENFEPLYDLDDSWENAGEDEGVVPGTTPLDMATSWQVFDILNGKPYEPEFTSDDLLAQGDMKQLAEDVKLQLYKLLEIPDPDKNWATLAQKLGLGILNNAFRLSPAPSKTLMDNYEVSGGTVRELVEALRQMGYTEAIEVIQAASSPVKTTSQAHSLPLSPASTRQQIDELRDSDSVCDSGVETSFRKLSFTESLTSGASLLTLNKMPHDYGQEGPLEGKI
UniProt Q04206: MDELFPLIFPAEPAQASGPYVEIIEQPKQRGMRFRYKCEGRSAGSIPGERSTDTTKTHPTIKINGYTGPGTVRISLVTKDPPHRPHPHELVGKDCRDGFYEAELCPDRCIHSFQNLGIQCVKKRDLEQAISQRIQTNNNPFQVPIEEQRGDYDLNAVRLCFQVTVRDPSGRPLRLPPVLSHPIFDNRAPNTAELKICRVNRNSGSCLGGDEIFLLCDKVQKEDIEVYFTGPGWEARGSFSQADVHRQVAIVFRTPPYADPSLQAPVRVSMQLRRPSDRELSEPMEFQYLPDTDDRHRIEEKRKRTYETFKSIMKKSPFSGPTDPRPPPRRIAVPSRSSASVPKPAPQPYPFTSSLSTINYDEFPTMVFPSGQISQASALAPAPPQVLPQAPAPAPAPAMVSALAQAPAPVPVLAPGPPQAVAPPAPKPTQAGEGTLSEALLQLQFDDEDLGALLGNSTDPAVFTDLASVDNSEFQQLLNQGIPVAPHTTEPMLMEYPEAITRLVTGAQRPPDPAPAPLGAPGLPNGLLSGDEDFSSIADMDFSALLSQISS

The target in assay [2] is T2, Endogenous NMI (HeLa cells) (human (endogenous in HeLa)) (UniProt Q13287).
T2 sequence: T1 sequence
Put plainly: co-IP; endogenous proteins; HeLa lysates immunoprecipitated with anti-NMI Ab, immunoblotted with anti-p65 Ab.

Assay [3] deals with T3, FLAG-NMI (human) (UniProt Q13287).
T3 sequence: T1 sequence
The experiment in a line: co-IP; two-step co-IP; HEK293T co-transfected with HA-p65, FLAG-NMI and Myc-IκBα; first IP anti-FLAG, elution with FLAG peptide in lysis buffer with 250 mM NaCl, second IP anti-HA in lysis buffer with 300 mM NaCl; 4 °C.

For assay [4], the target named is T3, FLAG-NMI (human). Put plainly: co-IP; 293T cells transfected with Myc-p65 and FLAG-NMI, lysed 24 h after transfection; immunoprecipitated with anti-FLAG or anti-Myc Abs, immunoblotted with anti-Myc or anti-FLAG Abs.

In PMC5674077 one finds binding data, which are given here for 4 substances.

No constants are given. Whether binding was seen depends on the method and setting. Binding seen in cells or lysates may run through a third protein. Some results given as binding are weak or reduced against the parent protein; the word gives no strength. For some of these results: Where a sequence is shown, tags or fusion partners need not be part of it.

For p105/p50 (from UniProt P19838 1-968), in assay [1], the binding entry is given as “binds”. Take “p65 (endogenous, HeLa cells) (from UniProt Q04206 1-551)”: the binding entry in assay [2] was “binds”. Take HA-p65 (from UniProt Q04206 1-551): the binding entry with FLAG-NMI (human) [3] was “binds”. Regarding Myc-p65 (from UniProt Q04206 1-551), the binding entry with FLAG-NMI (human) [4] is on record as “binds”.
